Where “and” joins values, the source holds several entries; their conditions need not be identical. Equal values may be shown once. Fewer than 10 of roughly 1,200 compounds were called active. The call rests on the fitted dose curve; in most records, active means well fitted curve in the direction sought with a large enough effect; inconclusive means small, poorly fitted or top-dose-only effect, or another doubt; inactive means no such curve, though single readings can be large or run the other way. The list shows a part of the results.
Assay: Confirmatory qHTS assay for inhibitors of Activation Induced Cytidine Deaminase (AID): UDG signals; further: 0% is about no effect
Settings: UDG coupled enzyme activity counter-screen; at 115 µM (top of the series) unless noted
Outline: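 Fluorescence at 560 nm excitation/665 nm emission reports UDG activity, read after NaOH quench of a 4 h room-temperature reaction of DJC20/DJC23 substrates with AID (1 uM, 4/3x) and UDG (2 U/mL, 4/3x); compounds at 7.32 nM - 114 uM final, preincubated 10 min.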

Row | Structure (SMILES) | activity change, negative = inhibition
1 | Cc1ccc(CNC(=O)c2cnn3c(C)c(Cc4c(F)cccc4Cl)c(C)nc23)cc1 | inactive: -4.23%
2 | CCN(CC)CCOC(=O)c1ccc(NC(=O)CSc2cc(=O)n(CC)c3ccccc23)cc1 | inactive: 4.77%
3 | Cc1ccccc1Cn1c(SCc2ccc(C(=O)NC3CCCC3)cc2)nc2ccncc21 | inactive: 12.1%
4 | Cc1ccc(-n2cnc3cc(C(=O)NCc4ccccc4Cl)ccc32)c(C)c1 | inactive: 3.32%
5 | Cc1nc2nc(SCC(=O)N(Cc3ccccc3)C(C)C)nn2c(C)c1Cc1ccccc1Cl | inactive: -10.1%
6 | CCCCOc1ccc(Cn2c(=O)sc3ccccc32)cc1 | inactive: 2.94%
7 | CCCN(CCC)CC(O)Cn1cc(/C=C/C(=O)c2ccc(OCC)cc2)c2ccccc21 (stereo unspecified) | inactive: -8.01%
8 | CCCCCn1c(=N)n(CC(O)COc2cccc(C)c2)c2ccccc21 (stereo unspecified) | inactive: -10.6%
9 | COc1ccc2c(c1)c(=O)c(C(=O)c1ccc(C)cc1)cn2Cc1ccccc1F | inactive: -6.28%
10 | COC(=O)c1ccc(Cl)cc1NC(=O)Nc1nnc(N(C)Cc2ccccc2)s1 | inactive: 4.78%
11 | COc1ccc(OC)c(-c2noc(N3CCN(c4cc(Cl)ccc4C)CC3)n2)c1 | inactive: -10.3%
12 | CCc1ccc(CNC(=O)C(CC)n2nc(C)c3c(C)n(-c4ccccc4)nc3c2=O)cc1 (stereo unspecified) | inactive: -10.4%
13 | CCOC(=O)C1CCCN(C(=O)c2cc3c(Cl)nc4ccccc4c3s2)C1 (stereo unspecified) | inactive: 8.83%
14 | Fc1ccc(F)c(Nc2c3c(nc4ccc(Cl)cc24)CCC3)c1 | inactive: 2.19%
15 | Cc1ccccc1Cn1c(=O)n(CC2CCC(C(=O)N3CCC(C)CC3)CC2)c(=O)c2sccc21 (stereo unspecified) | inactive: -12.1%
16 | O=C(c1ccccc1Cl)N1CCCC(c2nc3c(nnn3Cc3ccc(F)cc3F)c(=O)[nH]2)C1 (stereo unspecified) | inactive: 0.732%
17 | COc1ccc(-n2c(Cc3ccccc3)nnc2SCc2nc(-c3ccccc3C)no2)cc1 | inactive: -23.7%
18 | Cc1c(C(=O)N(C)c2ccccc2)sc2nc(-c3ccc(F)cc3)cn12 | inactive: -7.95%
19 | COc1ccc(N2CCN(C(=O)c3cn(C4CCCCC4)c(=O)c4c3c3ccccc3n4C)CC2)cc1 | inactive: -3.58%
20 | CCn1c(CN2CCCCC2)nc2cc(NC(=O)COc3cc(C)ccc3C(C)C)ccc21 | inactive: -16.7%
21 | Cc1ccc(C)c(N2CCN(C(=O)c3cccn3-c3nnc(N4CCCCC4)s3)CC2)c1 | inactive: -5.82%

Row | Structure (SMILES) | activity change, negative = inhibition
22 | Cc1ccc(C)c(N2CCN(CCCNC(=O)c3ccc4nc(N5CCCCC5)sc4c3)CC2)c1 | inactive: -9.97%
23 | O=C(CSc1nc2ccccc2nc1Cc1ccccc1)N1CCCCC1 | inactive: -7%
24 | Cn1nc(-c2ccccc2F)c2cc(C(=O)N3CCN(c4ccc(F)cc4)CC3)sc21 | inactive: -17%
25 | Cc1ccc(C)c(N2CCN(C(=O)Cn3nc(Cc4cccnc4)c4ccccc4c3=O)CC2)c1 | inactive: -2.12%
26 | COc1ccc(C(=O)c2cn(CC(=O)Nc3ccc4c(c3)OCCO4)c3ccc(OC)cc3c2=O)cc1 | inactive: 0.0253%
27 | CCOc1ccc(-n2c(CCC(=O)O)ccc2-c2ccc(Br)cc2)cc1 | inactive: 12.7%
28 | CCC(C(=O)N1CCN(c2ccccc2)CC1)n1nc(C)n2c(cc3sccc32)c1=O (stereo unspecified) | inactive: -0.471%
29 | CCCOc1ccc(-c2nn(-c3ccccc3)cc2C2NC(=O)NC(C)=C2C(=O)OC(C)C)cc1 (stereo unspecified) | inactive: -11.6%
30 | C=Cc1ccc(Cn2nc(-c3ccc(C)c(S(=O)(=O)N(CC)CC)c3)ccc2=O)cc1 | inactive: -6.02%
31 | Cn1nc(-c2ccc(C(=O)Nc3ccc(F)cc3)cc2)c2ccccc2c1=O | inactive: 2.76%
32 | O=C(O)CSc1c2c(nc3cc(C(=O)Nc4ccc(F)c(Cl)c4)ccc13)CCC2 | inactive: 9.97%
33 | COc1cc(Cl)c(C)cc1NC(=O)c1ccc2c(SCC(=O)O)c3c(nc2c1)CCCC3 | inactive: 2.41%
34 | CCCOc1c(Cl)cc(C(=O)N(Cc2cccc(OC)c2)C2CCS(=O)(=O)C2)cc1Cl (stereo unspecified) | inactive: -4.73%
35 | O=C(NCc1ccccc1Cl)c1ccc2c(O)c(S(=O)(=O)c3ccccc3)c(=O)[nH]c2c1 | inactive: 5.82%
36 | Cc1ccccc1Cn1c(CN2CCN(c3cc(Cl)ccc3C)CC2)nc2c1c(=O)[nH]c(=O)n2C | inactive: -2.68%
37 | CCCN1CCN(CCCNC(=O)c2ccc3c(c2)sc2nc(-c4ccc(OCC)cc4)cn23)CC1 | inactive: -1.77%
38 | Cc1ccc2c(c1)-c1c(cnn1CC(=O)N1CCN(c3cc(C)ccc3C)CC1)CO2 | inactive: -3.23%
39 | Cc1ccc(-c2n[nH]c3c2C(c2ccccc2Cl)N(c2ccc(C(=O)O)cc2)C3=O)cc1 (stereo unspecified) | inactive: 3.17%
40 | COc1ccc(OC)c(NC(=O)N2CC(C)Oc3ccc(C)cc32)c1 (stereo unspecified) | inactive: 0.232%
41 | Cc1ccc(OCC(=O)N(Cc2ccc(Cl)cc2)CC2CCCO2)cc1C (stereo unspecified) | inactive: -3.71%
42 | Cc1ccc(C)c(CNC(=O)c2cnc3sc(N4CCCC4)nn3c2=O)c1 | inactive: 6.28%

Row | Structure (SMILES) | activity change, negative = inhibition
43 | CCOC(=O)C1=C(CN(CC)Cc2ccccc2)NC(=O)NC1c1ccc(OC(C)C)cc1 (stereo unspecified) | inactive: -13.6%
44 | COc1ccc(CCN2CCC(CNC(=O)c3cnn(-c4ccccc4)c3C3CCN(C(=O)OC(C)(C)C)CC3)CC2)cc1 | inactive: -5.77%
45 | Cc1ccc(Cc2nc3ccccc3nc2SCC(=O)N2CCCCC2C)cc1 (stereo unspecified) | inactive: -3.62%
46 | Cc1cccn2c(=O)c3cc(C(=O)N(Cc4ccccc4)C(C)C)sc3nc12 | inactive: 3.34%
47 | CCOc1ccccc1NC(=O)CSC1=Nc2ccccc2C2=NC(CC(=O)NC3CCCCC3)C(=O)N12 (stereo unspecified) | inactive: 7.19%
48 | CCOc1ccc(NC(=O)CN(C)S(=O)(=O)c2ccc3c(c2)c(=O)n(C)c(=O)n3C)cc1 | inactive: 9.06%
49 | CC(C)(C)OC(=O)N1CCC(c2c(C(=O)NCCN3CCOCC3)cnn2-c2ccccc2)CC1 | inactive: -16.3%
50 | COc1ccc2c(C)cc(SCC(=O)Nc3nsc(-c4ccc(C(C)(C)C)cc4)n3)nc2c1 | inactive: -8.69%
51 | CCn1cc2nc(SCc3cccc(C(F)(F)F)c3)n(CCc3ccccc3)c(=O)c2n1 | inactive: -6.4%
52 | Fc1ccc(CNc2ncnc3onc(-c4ccc(F)cc4)c23)cc1 | inactive: 1.53%
53 | CCCN(CCC)CC(O)Cn1cc(/C=C/C(=O)c2ccc(C)cc2)c2ccccc21 (stereo unspecified) | inactive: -5.18%
54 | CCC(Oc1ccccc1F)C(=O)N1CCC(c2nc3ccccc3s2)CC1 (stereo unspecified) | inactive: -1.92%
55 | COc1ccccc1Cn1cc(C(=O)c2ccc(C)cc2)c(=O)c2cc(C)ccc21 | inactive: -1.74%
56 | COc1ccc(N2CCN(Cc3cccn3-c3nnc(N4CCN(C5CCCCC5)CC4)s3)CC2)cc1 | inactive: -7.16%
57 | N#CC1=C2SCN(C3CCCCC3)CN2C(=O)CC1c1c(F)cccc1Cl (stereo unspecified) | inactive: -4.69%
58 | CCOC(=O)c1ccc(-c2ccc(/C=C(\C#N)c3nc4ccc(C)cc4[nH]3)o2)cc1 | inactive: -7.54%
59 | CCCN1CCN(c2cc3c(cc2F)c(=O)c(S(=O)(=O)c2ccc(CC)cc2)cn3CC)CC1 | inactive: 4.81%
60 | Cc1ccc(-c2ccc(=O)n(CC(=O)Nc3ccc(C)cc3Cl)n2)cc1 | inactive: 3.58%
61 | CCOC(=O)c1ccc(-n2c(CCC(=O)O)ccc2-c2ccc(Br)cc2)cc1 | inactive: 9.47%
62 | COc1ccc(CC(=O)Nc2sc3c(c2C(=O)Nc2cccc(Cl)c2)CCCCC3)cc1 | inactive: -4.6%
63 | COCCNC(=O)c1ccc2c(c1)N(Cc1ccc(C(F)(F)F)cc1)C(=O)c1ccccc1S2 | inactive: 2.3%

Row | Structure (SMILES) | activity change, negative = inhibition
64 | Cc1cccc(OCCCSc2nc(-c3ccc(C(C)(C)C)cc3)nc3cc(=O)[nH]n23)c1C | inactive: -7.96%
65 | COc1ccc2c(c1)Cc1sc(NC(=O)c3ccc(Cl)cc3)nc1-2 | inactive: -15.8%
66 | N#C/C(=C\c1ccc(-c2ccc(Cl)c(C(=O)O)c2)o1)c1nc2ccccc2[nH]1 | inactive: 0.178%
67 | Oc1ccc(NCc2ccccc2OCc2ccccc2Cl)cc1 | inactive: -17.6%
68 | CCCCCCCCCCCCCCSCC(=O)O | inactive: -3.59%
69 | CCCCN(CC)CCCNC(=O)c1ccc2c(c1)N(Cc1ccc(C)cc1)C(=O)c1ccccc1S2 | inactive: -3.62%
70 | CC1CCCN(C(=O)c2ccc(CSc3nc4ccncc4n3Cc3ccccc3)cc2)C1 (stereo unspecified) | inactive: -2.52%
71 | COc1cccc(-c2nc3cc(NC(=O)c4ccc(C)c([N+](=O)[O-])c4)ccc3o2)c1 | inactive: 5.87% and inactive: -7.73%
72 | Cc1ccc(CNC(=O)C2CCCN(c3nc4ccccc4n4cccc34)C2)cc1 (stereo unspecified) | inactive: -0.725%
73 | CC(C)(C)OC(=O)N1CCC(c2c(C(=O)N3CCC(c4ccccc4)C3)cnn2-c2cccc(Cl)c2)CC1 (stereo unspecified) | inactive: 2.5%
74 | CCCCN(CCCC)C(=O)c1cc2c(=O)n3cccc(C)c3nc2s1 | inactive: -1.48%
75 | COc1cccc(CNC(=O)c2cc3c(s2)-c2ccccc2OC3)c1 | inactive: -7.73%
76 | Cc1ccc(-c2nc3sc(CCNC(=O)c4ccc(Br)o4)c(C)n3n2)cc1 | inactive: -10%
77 | Cc1nc2c(C(=O)NCc3ccccc3)c[nH]n2c(=O)c1Cc1ccccc1Cl | inactive: 4.49%
78 | COc1ccc(C2CC(=O)Nc3c2c(C)nn3-c2nncc(-c3ccc(C)cc3)n2)c(OC)c1OC (stereo unspecified) | inactive: 5.68%
79 | Cc1cccc(CCNC(=O)c2sc3nc4n(c(=O)c3c2C)CCCC4)c1 | inactive: -2.85%
80 | Clc1ccc(-c2noc3ncnc(NCCc4ccccc4)c23)cc1 | inactive: -2.33%
81 | CCC(Sc1nc2ccccc2c(=O)n1CCc1ccc(OC)c(OC)c1)C(=O)N(CC)CC (stereo unspecified) | inactive: -6.54%

Copied from the list:
CCCN(CCC)CC(O)Cn1cc(/C=C/C(=O)c2ccc(OCC)cc2)c2ccccc21 (stereo unspecified) | activity change, negative = inhibition: inactive: -8.01%
CCOc1ccccc1NC(=O)CSC1=Nc2ccccc2C2=NC(CC(=O)NC3CCCCC3)C(=O)N12 (stereo unspecified) | activity change, negative = inhibition: inactive: 7.19%
CCOc1ccc(NC(=O)CN(C)S(=O)(=O)c2ccc3c(c2)c(=O)n(C)c(=O)n3C)cc1 | activity change, negative = inhibition: inactive: 9.06%

Source: PubChem BioAssay AID1347431 (National Center for Advancing Translational Sciences (NCATS), 2020)
